Read-outs that look alike come from different tables or passages of the source. No constants are given. Whether binding was seen depends on the method and setting. Binding seen in cells or lysates may run through a third protein. A yes stands for co-enrichment or nearness to the bait. Other partners may have been found. Tags and fused reporters may be left off the sequences shown.
T1: Wsc1-GFP (S. cerevisiae) (UniProt P54867)
T1 sequence: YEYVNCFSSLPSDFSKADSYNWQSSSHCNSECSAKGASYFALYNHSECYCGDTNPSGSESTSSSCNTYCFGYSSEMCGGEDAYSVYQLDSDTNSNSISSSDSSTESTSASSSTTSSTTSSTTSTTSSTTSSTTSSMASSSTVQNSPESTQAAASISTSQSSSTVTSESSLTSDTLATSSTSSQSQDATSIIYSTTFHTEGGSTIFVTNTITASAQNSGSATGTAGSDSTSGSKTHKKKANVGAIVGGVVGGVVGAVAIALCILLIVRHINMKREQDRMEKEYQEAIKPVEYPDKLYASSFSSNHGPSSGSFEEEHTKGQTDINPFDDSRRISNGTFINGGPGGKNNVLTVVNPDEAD

Protein sequences, listed by entry. Tags and fused reporters are not part of them.
UniProt P39926: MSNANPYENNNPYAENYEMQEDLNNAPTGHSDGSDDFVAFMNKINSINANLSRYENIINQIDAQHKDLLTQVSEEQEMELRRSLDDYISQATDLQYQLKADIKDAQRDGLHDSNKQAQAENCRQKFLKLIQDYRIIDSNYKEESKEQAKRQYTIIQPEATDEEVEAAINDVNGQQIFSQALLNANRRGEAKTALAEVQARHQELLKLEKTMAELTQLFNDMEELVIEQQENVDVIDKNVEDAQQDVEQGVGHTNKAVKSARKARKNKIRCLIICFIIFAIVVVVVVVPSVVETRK
UniProt P23291: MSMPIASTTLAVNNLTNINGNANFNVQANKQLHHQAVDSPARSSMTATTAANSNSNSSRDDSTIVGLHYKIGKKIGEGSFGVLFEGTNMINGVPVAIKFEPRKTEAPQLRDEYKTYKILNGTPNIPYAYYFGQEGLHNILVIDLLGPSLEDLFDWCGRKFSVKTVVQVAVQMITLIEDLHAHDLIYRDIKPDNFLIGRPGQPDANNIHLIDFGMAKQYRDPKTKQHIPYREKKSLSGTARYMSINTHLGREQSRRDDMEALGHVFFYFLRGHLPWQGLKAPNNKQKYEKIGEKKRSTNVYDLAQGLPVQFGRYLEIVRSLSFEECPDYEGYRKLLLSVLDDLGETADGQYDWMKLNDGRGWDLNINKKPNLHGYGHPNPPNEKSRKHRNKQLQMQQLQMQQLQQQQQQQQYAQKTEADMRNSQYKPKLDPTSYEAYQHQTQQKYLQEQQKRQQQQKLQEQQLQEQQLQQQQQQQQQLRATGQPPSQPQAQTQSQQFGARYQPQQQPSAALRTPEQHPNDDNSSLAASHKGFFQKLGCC

T2: Mid2-GFP (S. cerevisiae) (UniProt P36027)
T2 sequence: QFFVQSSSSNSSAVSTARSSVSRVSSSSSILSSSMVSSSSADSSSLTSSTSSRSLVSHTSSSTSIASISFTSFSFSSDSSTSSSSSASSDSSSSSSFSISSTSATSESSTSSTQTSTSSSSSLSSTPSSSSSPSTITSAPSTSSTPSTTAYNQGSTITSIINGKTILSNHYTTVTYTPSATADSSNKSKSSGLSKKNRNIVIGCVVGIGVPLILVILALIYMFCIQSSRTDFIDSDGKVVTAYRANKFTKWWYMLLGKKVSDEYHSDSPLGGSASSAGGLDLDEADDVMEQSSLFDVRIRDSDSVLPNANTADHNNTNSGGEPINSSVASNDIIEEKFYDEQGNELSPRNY


Assays:
Experiment in all cases: affinity purification with mass spectrometry; immunoprecipitation (IP-MS) of GFP-tagged bait with anti-GFP microbeads from yeast lysate cross-linked with 1 mM DSP, 1% digitonin, on-bead digestion; BY4741 as control
[1] = molecular target: T1, Wsc1-GFP (S. cerevisiae)
[2] = molecular target: T2, Mid2-GFP (S. cerevisiae)
[3] = molecular target: T1, Wsc1-GFP (S. cerevisiae); remark: listed apart in the source
[4] = molecular target: T2, Mid2-GFP (S. cerevisiae); remark: listed apart in the source

Molecule | binding [1] | binding [2] | binding [3] | binding [4]
Sso2 (endogenous) (from UniProt P39926 1-295) | binds | binds |  | 
Yck1 (endogenous) (from UniProt P23291 1-538) | binds | binds |  | 
Crn1 (endogenous) (protein, UniProt Q06440 1-651) MSGKFVRASKYRHVFGQAAKKELQYEKLKVTNNAWDSNLLKTNGKFIAVNWNASGGGAFAVIPIEEVGKAPDQVPLFRGHTAQVLDTDFDPFNDHRIASGSDDSKIGIWDIPENYKFHDHVDEDGEPIDIKPVKFLTGHARKVGHVLYHPVAENVLASSSGDYTVKLWNVETGKDMITLKHPDMVTSMSFSYDGNYLATVARDKKLRVWNIREEKIVSEGPAHTGAKNQRVVWLGNSDRLATTGFSKLSDRQIGIWDAFNIEKGDLGGFYTVDQSSGILMPFYDEGNKILYLVGKGDGNIRYYEFQNDELFELSEFQSTEAQRGFAVAPKRMVNVKENEVLKGFKTVVDQRIEPVSFFVPRRSEEFQEDIYPDAPSNKPALTAEEWFSGKSVEGPILVSMRSIYDGSAPSFHEAKRPQQPTTQETALEEKKEQPKVEKPISESEKEVKQEAPKSPSPLKSASSSSTINHVLKEDNSINKLLKKSSDIDQVNNAEDPSRDTSGWEEADDEPAPIKIETPVTPTETKKDRTPKVEPSKELKPEPVSIATDRKQEQSLPQEEKSSEKTKSPEQEKSATPPSSITAAKTAITASSKEEPSAARTSPKSLGLKKSVEKLSTLVLQLEDVVDKLTKANLDKDERLLKLEQKIGELSK |  |  | binds | binds

Results, then the molecule that gave them:

binding [1] | binding [2] | binding [3] | binding [4] | Molecule
 |  | binds | binds | Ras2 (endogenous) (protein, UniProt P01120 1-322) MPLNKSNIREYKLVVVGGGGVGKSALTIQLTQSHFVDEYDPTIEDSYRKQVVIDDEVSILDILDTAGQEEYSAMREQYMRNGEGFLLVYSITSKSSLDELMTYYQQILRVKDTDYVPIVVVGNKSDLENEKQVSYQDGLNMAKQMNAPFLETSAKQAINVEEAFYTLARLVRDEGGKYNKTLTENDNSKQTSQDTKGSGANSVPRNSGGHRKMSNAANGKNVNSSTTVVNARNASIESKTGLAGNQATNGKTQTDRTNIDNSTGQAGQANAQSANTVNNRVNNNSKAGQVSNAKQARKQQAAPGGNTSEASKSGSGGCCIIS
 |  |  | binds | Abp1 (endogenous) (protein, UniProt P15891 1-592) MALEPIDYTTHSREIDAEYLKIVRGSDPDTTWLIISPNAKKEYEPESTGSSFHDFLQLFDETKVQYGLARVSPPGSDVEKIIIIGWCPDSAPLKTRASFAANFAAVANNLFKGYHVQVTARDEDDLDENELLMKISNAAGARYSIQTSSKQQGKASTPPVKKSFTPSKSPAPVSKKEPVKTPSPAPAAKISSRVNDNNDDDDWNEPELKERDFDQAPLKPNQSSYKPIGKIDLQKVIAEEKAKEDPRLVQKPTAAGSKIDPSSDIANLKNESKLKRDSEFNSFLGTTKPPSMTESSLKNDDDKVIKGFRNEKSPAQLWAERKAKQNSGNAETKAEAPKPEVPEDEPEGEPDVKDLKSKFEGLAASEKEEEEMENKFAPPPKKSEPTIISPKPFSKPQEPVKAEEAEQPKTDYKKIGNPLPGMHIEADNEEEPEENDDDWDDDEDEAAQPPLPSRNVASGAPVQKEEPEQEEIAPSLPSRNSIPAPKQEEAPEQAPEEEIEEEAEEAAPQLPSRSSAAPPPPPRRATPEKKPKENPWATAEYDYDAAEDNELTFVENDKIINIEFVDDDWWLGELEKDGSKGLFPSNYVSLGN
